From the supplement of paper PMC10032668
The other results are listed elsewhere or left out. Only hits are listed; about a third recur on repeated control peptides.

Sequences of proteins named here, by UniProt entry; tags and fusion partners are left off.
NDUFA10, O95299, UniProt O95299, whole entry: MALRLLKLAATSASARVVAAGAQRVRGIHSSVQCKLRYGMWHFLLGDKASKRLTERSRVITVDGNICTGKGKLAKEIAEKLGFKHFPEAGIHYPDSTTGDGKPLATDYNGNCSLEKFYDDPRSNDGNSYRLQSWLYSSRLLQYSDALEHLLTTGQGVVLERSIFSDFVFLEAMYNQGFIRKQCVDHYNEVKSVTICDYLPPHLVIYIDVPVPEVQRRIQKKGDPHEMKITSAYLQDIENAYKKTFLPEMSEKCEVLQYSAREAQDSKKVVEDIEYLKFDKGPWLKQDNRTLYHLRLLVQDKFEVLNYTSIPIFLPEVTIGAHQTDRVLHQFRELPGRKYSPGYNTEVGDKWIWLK
DCTN3, O75935, UniProt O75935, whole entry: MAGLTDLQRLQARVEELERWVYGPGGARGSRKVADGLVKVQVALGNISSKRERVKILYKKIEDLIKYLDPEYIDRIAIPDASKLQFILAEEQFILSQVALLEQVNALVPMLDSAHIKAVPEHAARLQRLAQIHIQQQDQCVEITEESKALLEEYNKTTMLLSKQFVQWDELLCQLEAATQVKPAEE
ATG3, Q9NT62, UniProt Q9NT62, whole entry: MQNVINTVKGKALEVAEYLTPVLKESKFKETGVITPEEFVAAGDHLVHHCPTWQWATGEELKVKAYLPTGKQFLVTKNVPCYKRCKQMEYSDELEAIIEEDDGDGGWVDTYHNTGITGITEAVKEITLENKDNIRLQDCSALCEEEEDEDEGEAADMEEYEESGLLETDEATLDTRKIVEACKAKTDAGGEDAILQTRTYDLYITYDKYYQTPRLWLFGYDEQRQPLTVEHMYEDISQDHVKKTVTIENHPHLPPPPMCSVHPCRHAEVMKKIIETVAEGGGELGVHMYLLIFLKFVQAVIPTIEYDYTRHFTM
BCCIP, Q9P287, UniProt Q9P287, whole entry: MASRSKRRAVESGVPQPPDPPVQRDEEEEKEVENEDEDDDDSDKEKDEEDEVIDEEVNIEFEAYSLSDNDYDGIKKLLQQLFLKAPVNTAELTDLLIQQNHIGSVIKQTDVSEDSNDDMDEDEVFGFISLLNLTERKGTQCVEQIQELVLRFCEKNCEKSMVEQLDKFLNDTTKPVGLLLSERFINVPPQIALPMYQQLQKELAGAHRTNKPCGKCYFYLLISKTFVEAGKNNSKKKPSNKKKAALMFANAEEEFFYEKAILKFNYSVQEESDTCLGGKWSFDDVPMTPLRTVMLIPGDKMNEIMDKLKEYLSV
ATP6AP1, Q15904, UniProt Q15904, whole entry: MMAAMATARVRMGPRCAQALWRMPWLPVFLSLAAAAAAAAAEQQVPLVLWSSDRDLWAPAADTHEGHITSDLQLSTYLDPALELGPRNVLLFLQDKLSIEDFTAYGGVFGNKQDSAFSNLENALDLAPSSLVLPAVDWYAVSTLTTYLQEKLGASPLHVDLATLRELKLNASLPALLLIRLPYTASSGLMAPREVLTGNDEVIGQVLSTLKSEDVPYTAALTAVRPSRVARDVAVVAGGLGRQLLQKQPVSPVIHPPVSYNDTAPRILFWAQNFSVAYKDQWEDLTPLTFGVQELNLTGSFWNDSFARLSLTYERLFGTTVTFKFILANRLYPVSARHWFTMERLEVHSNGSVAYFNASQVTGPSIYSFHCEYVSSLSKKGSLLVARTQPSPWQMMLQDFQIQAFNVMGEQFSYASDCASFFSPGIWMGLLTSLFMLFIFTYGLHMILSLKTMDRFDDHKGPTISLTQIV
ATP6V1D, Q9Y5K8, UniProt Q9Y5K8, whole entry: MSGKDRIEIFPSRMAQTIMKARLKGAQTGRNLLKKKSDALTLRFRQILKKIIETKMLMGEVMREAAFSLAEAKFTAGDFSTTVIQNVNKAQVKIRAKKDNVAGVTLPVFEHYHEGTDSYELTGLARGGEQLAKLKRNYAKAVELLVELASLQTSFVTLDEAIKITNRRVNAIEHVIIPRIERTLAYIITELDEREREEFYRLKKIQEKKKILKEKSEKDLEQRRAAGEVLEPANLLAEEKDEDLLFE
SEC61A1, P61619, UniProt P61619, whole entry: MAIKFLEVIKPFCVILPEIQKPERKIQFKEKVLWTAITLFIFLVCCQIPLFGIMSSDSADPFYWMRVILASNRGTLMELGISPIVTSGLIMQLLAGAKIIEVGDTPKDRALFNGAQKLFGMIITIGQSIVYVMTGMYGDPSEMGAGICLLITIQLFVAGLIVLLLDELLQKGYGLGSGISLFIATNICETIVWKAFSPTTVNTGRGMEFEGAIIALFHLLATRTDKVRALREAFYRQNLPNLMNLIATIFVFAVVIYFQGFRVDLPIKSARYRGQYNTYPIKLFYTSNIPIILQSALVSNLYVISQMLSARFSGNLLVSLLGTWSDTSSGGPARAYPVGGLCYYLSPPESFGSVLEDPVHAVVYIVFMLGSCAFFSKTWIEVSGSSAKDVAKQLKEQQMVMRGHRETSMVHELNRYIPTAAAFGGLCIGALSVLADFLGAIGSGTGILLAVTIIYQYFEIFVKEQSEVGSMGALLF
RBM25, P49756, UniProt P49756, whole entry: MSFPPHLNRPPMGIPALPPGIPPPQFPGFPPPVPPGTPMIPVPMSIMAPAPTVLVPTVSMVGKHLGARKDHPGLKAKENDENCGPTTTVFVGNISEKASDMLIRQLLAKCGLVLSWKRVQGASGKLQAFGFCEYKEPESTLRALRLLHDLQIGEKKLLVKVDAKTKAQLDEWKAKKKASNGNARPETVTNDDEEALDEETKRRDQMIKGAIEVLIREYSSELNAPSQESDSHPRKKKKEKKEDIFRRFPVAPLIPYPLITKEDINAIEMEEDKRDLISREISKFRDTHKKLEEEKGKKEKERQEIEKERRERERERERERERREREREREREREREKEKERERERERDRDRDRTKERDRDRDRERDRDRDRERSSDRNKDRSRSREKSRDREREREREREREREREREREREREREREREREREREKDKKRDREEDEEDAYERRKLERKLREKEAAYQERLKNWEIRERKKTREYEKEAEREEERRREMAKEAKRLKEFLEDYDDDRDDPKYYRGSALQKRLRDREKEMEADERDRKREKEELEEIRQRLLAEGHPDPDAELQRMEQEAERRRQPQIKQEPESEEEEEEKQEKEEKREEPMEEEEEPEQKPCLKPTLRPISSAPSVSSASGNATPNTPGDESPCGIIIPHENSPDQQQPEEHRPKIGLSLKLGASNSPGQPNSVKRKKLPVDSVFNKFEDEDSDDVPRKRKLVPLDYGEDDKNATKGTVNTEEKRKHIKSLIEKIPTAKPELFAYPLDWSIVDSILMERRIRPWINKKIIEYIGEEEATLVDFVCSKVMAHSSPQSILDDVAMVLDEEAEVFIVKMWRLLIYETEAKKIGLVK
CDC20, Q12834, UniProt Q12834, whole entry: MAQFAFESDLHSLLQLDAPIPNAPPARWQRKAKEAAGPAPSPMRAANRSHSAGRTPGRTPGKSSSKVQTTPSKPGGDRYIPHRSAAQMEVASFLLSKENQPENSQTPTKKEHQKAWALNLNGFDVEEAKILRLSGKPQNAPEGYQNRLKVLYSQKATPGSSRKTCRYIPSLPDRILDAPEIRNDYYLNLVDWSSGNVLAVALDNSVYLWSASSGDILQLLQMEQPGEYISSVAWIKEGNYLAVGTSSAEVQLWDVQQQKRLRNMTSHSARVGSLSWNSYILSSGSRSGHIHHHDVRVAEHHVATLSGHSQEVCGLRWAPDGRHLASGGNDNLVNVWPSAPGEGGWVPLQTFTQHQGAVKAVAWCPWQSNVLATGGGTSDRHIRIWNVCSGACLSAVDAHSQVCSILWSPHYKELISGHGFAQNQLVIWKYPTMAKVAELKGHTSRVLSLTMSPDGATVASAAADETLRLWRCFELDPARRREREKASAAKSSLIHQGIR
GRWD1, Q9BQ67, UniProt Q9BQ67, whole entry: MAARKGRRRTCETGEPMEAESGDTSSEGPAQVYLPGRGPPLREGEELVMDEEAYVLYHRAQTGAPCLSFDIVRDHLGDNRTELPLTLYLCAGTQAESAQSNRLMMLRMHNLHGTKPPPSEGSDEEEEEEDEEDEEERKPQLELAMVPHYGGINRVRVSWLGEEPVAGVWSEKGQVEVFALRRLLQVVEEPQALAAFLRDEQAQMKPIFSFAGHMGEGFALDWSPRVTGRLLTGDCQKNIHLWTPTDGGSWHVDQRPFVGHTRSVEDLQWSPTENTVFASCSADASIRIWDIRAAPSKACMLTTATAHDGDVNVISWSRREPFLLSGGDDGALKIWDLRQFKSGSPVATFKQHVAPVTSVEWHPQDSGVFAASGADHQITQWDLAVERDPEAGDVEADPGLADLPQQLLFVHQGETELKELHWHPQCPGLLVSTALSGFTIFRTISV
AURKB, Q96GD4, UniProt Q96GD4, whole entry: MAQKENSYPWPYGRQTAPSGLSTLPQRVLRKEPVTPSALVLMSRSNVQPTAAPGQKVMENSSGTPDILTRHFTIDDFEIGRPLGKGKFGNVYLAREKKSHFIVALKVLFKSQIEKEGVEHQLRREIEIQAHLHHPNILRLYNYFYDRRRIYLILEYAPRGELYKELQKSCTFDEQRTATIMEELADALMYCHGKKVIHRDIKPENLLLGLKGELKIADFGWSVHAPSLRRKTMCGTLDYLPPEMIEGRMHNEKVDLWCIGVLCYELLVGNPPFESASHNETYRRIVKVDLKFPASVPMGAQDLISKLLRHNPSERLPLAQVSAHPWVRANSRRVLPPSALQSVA
EXOSC3, Q9NQT5, UniProt Q9NQT5, whole entry: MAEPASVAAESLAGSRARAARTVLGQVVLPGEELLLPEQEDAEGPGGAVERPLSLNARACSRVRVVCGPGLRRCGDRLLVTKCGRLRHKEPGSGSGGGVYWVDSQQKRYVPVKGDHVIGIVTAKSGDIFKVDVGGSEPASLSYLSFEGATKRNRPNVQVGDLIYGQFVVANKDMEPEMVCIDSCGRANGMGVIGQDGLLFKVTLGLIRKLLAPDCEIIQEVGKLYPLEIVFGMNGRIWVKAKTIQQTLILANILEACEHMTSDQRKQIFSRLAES
NELFA, Q9H3P2, UniProt Q9H3P2, whole entry: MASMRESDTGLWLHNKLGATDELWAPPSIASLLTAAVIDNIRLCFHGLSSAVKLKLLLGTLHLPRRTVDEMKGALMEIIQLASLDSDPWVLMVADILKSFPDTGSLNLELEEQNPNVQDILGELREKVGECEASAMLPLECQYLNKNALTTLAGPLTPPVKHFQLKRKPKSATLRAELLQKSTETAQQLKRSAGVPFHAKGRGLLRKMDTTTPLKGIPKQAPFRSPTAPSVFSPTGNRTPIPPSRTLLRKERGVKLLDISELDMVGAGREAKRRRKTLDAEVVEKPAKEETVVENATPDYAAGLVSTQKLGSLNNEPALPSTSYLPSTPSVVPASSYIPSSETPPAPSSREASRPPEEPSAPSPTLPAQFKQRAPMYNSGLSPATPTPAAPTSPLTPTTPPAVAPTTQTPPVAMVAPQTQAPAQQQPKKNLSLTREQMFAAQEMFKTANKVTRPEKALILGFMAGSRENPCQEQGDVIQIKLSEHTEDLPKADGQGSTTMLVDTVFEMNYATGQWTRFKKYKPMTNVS
PDHA1, P08559, UniProt P08559, whole entry: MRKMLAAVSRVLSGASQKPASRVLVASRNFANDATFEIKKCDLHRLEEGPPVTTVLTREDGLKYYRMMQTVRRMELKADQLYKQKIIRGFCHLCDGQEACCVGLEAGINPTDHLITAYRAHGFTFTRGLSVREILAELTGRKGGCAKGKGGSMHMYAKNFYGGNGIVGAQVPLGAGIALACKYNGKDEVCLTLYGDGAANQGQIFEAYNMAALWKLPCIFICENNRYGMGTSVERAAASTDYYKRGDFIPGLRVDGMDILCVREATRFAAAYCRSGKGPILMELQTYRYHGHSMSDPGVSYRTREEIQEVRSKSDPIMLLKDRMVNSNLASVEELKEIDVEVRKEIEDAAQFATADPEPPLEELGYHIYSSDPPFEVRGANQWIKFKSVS

Legend:
Assay in all cases: PRISMA enrichment of interactor (LFQ) in peptide spot vs all other peptide spots (log2 fold change); higher = stronger / more specific binding of the interactor to the peptide
[1] = biological target: ASH2L
Method: (§1)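 PRISMA: 221 full-length sORF-encoded peptides (3-15 aa), plus SOS1/GLUT1 control peptides, were spot-synthesized on cellulose membranes in triplicate. Membranes were incubated with HEK293T lysate, and bound proteins were identified by LC-MS/MS with LFQ. Enrichment is the log2 fold change versus all other peptide spots; only significant interactors are listed (cutoff c=6, x0=2.8).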

[2] = biological target: DDX23, Q9BUQ8
Method: as §1

[3] = biological target: DNAJB4, Q9UDY4
Method: as §1

[4] = biological target: GARS, P41250
Method: as §1

[5] = biological target: NDUFA10, O95299
Method: as §1

[6] = biological target: ASPM, Q8IZT6
Method: as §1

[7] = biological target: DCTN3, O75935
Method: as §1

[8] = biological target: GAS1, P54826
Method: as §1

[9] = biological target: RCN2, Q14257
Method: as §1

[10] = biological target: SAPCD2, Q86UD0
Method: as §1

[11] = biological target: ATG3, Q9NT62
Method: as §1

[12] = biological target: C19orf47, Q8N9M1
Method: as §1

[13] = biological target: DCXR, Q7Z4W1
Method: as §1

[14] = biological target: EMILIN1, Q9Y6C2
Method: as §1

[15] = biological target: HSPA14, Q0VDF9
Method: as §1

[16] = biological target: METTL26, Q96S19
Method: as §1

[17] = biological target: MRPL39, Q9NYK5
Method: as §1

[18] = biological target: NUP98, P52948
Method: as §1

[19] = substrate: SON, P18583
Method: as §1

[20] = biological target: SPTSSA, Q969W0
Method: as §1

[21] = biological target: TGM1, P22735
Method: as §1

[22] = biological target: YTHDF3, Q7Z739
Method: as §1

[23] = biological target: ATP5ME, P56385
Method: as §1

[24] = substrate: BCCIP, Q9P287
Method: as §1

[25] = biological target: CHCHD2, Q9Y6H1
Method: as §1

[26] = biological target: MRPL10, Q7Z7H8
Method: as §1

[27] = biological target: NAP1L1, P55209
Method: as §1

[28] = biological target: NAP1L4, Q99733
Method: as §1

[29] = biological target: PPM1G, O15355
Method: as §1

[30] = biological target: ATP6AP1, Q15904
Method: as §1

[31] = biological target: NUDT16L1, Q9BRJ7
Method: as §1

[32] = biological target: POLDIP2, Q9Y2S7
Method: as §1

[33] = biological target: ATP6V1D, Q9Y5K8
Method: as §1

[34] = biological target: MEMO1, Q9Y316
Method: as §1

[35] = biological target: NEK7, Q8TDX7
Method: as §1

[36] = biological target: SEC61A1, P61619
Method: as §1

[37] = biological target: AUH, Q13825
Method: as §1

[38] = biological target: ILVBL, A1L0T0
Method: as §1

[39] = biological target: RAB3GAP1, Q15042
Method: as §1

[40] = biological target: SSU72, Q9NP77
Method: as §1

[41] = biological target: AURKA, O14965
Method: as §1

[42] = biological target: DDX28, Q9NUL7
Method: as §1

[43] = biological target: ITPA, Q9BY32
Method: as §1

[44] = biological target: RBM25, P49756
Method: as §1

[45] = biological target: SRRM1, Q8IYB3
Method: as §1

[46] = biological target: STAG2, Q8N3U4
Method: as §1

[47] = biological target: CDC20, Q12834
Method: as §1

[48] = biological target: GRWD1, Q9BQ67
Method: as §1

[49] = biological target: LSM12, Q3MHD2
Method: as §1

[50] = biological target: LYRM2, Q9NU23
Method: as §1

[51] = biological target: MRPL49, Q13405
Method: as §1

[52] = biological target: MRPL55, Q7Z7F7
Method: as §1

[53] = biological target: AURKB, Q96GD4
Method: as §1

[54] = biological target: CHCHD1, Q96BP2
Method: as §1

[55] = biological target: EXOSC3, Q9NQT5
Method: as §1

[56] = biological target: FAM53C, Q9NYF3
Method: as §1

[57] = biological target: GPS1, Q13098
Method: as §1

[58] = biological target: HERC5, Q9UII4
Method: as §1

[59] = biological target: MCU, Q8NE86
Method: as §1

[60] = biological target: NELFA, Q9H3P2
Method: as §1

[61] = biological target: PDHA1, P08559
Method: as §1

[62] = biological target: POLD1, P28340
Method: as §1

[63] = biological target: UBR4, Q5T4S7
Method: as §1

[64] = biological target: ZBTB10, Q96DT7
Method: as §1

[65] = biological target: BAG6, P46379
Method: as §1

[66] = biological target: GC, P02774
Method: as §1

[67] = biological target: ISCU, Q9H1K1
Method: as §1

[68] = biological target: MRPL48, Q96GC5
Method: as §1

[69] = biological target: NUP54, Q7Z3B4
Method: as §1

[70] = biological target: TRIP13, Q15645
Method: as §1

[71] = biological target: CTSA, P10619
Method: as §1

[72] = biological target: MRPS31, Q92665
Method: as §1

[73] = biological target: TMEM41B, Q5BJD5
Method: as §1

MEPGLQGK [FGFR1]
PRISMA enrichment of interactor (log2) [1]: 4.13
PRISMA enrichment of interactor (log2) [2]: 6.58
PRISMA enrichment of interactor (log2) [3]: 4.67
PRISMA enrichment of interactor (log2) [4]: 6.21
PRISMA enrichment of interactor (log2) [5]: 6.37

MPSSRAV [STAT1]
PRISMA enrichment of interactor (log2) [6]: 4.32
PRISMA enrichment of interactor (log2) [7]: 4.44
PRISMA enrichment of interactor (log2) [8]: 7.14
PRISMA enrichment of interactor (log2) [9]: 6.55
PRISMA enrichment of interactor (log2) [10]: 6.37

MVAQAELRALIL [SNHG5]
PRISMA enrichment of interactor (log2) [11]: 6.14
PRISMA enrichment of interactor (log2) [12]: 4.1
PRISMA enrichment of interactor (log2) [13]: 8.7
PRISMA enrichment of interactor (log2) [14]: 9.14
PRISMA enrichment of interactor (log2) [15]: 6.88
PRISMA enrichment of interactor (log2) [16]: 4.71
PRISMA enrichment of interactor (log2) [17]: 6.8
PRISMA enrichment of interactor (log2) [18]: 5.18
PRISMA enrichment of interactor (log2) [19]: 4.94
PRISMA enrichment of interactor (log2) [20]: 8.27
PRISMA enrichment of interactor (log2) [21]: 4.48
PRISMA enrichment of interactor (log2) [22]: 4.57

MVWRSTRTRAARRRA [LMBR1]
PRISMA enrichment of interactor (log2) [23]: 5.27
PRISMA enrichment of interactor (log2) [24]: 4.99
PRISMA enrichment of interactor (log2) [25]: 4.51
PRISMA enrichment of interactor (log2) [26]: 5.39
PRISMA enrichment of interactor (log2) [27]: 6.66
PRISMA enrichment of interactor (log2) [28]: 5.68
PRISMA enrichment of interactor (log2) [29]: 5.39

MTGGGRGVWD [UBL3]
PRISMA enrichment of interactor (log2) [30]: 5.99
PRISMA enrichment of interactor (log2) [31]: 5.77
PRISMA enrichment of interactor (log2) [32]: 6.57

MSMIGCDFRS [HUWE1]
PRISMA enrichment of interactor (log2) [33]: 5.95
PRISMA enrichment of interactor (log2) [34]: 4.84
PRISMA enrichment of interactor (log2) [35]: 5.04
PRISMA enrichment of interactor (log2) [36]: 10.1

MLRSCSLNQPKF [PNISR]
PRISMA enrichment of interactor (log2) [37]: 4.71
PRISMA enrichment of interactor (log2) [38]: 6.33
PRISMA enrichment of interactor (log2) [39]: 5.49
PRISMA enrichment of interactor (log2) [40]: 3.81

MTAPPGTRERVGGL [DOCK4]
PRISMA enrichment of interactor (log2) [41]: 4.95
PRISMA enrichment of interactor (log2) [42]: 4.28
PRISMA enrichment of interactor (log2) [43]: 7.2
PRISMA enrichment of interactor (log2) [44]: 8.73
PRISMA enrichment of interactor (log2) [10]: 5.4
PRISMA enrichment of interactor (log2) [45]: 4.87
PRISMA enrichment of interactor (log2) [46]: 6.98

MRTVMCVLKL [ATM]
PRISMA enrichment of interactor (log2) [41]: 6.93
PRISMA enrichment of interactor (log2) [47]: 4.07
PRISMA enrichment of interactor (log2) [48]: 5.39
PRISMA enrichment of interactor (log2) [49]: 5.34
PRISMA enrichment of interactor (log2) [50]: 4.62
PRISMA enrichment of interactor (log2) [51]: 5.4
PRISMA enrichment of interactor (log2) [52]: 7.07

MSKNSVTVLPWSLQ [P2RY14]
PRISMA enrichment of interactor (log2) [53]: 5.4
PRISMA enrichment of interactor (log2) [54]: 8.48
PRISMA enrichment of interactor (log2) [55]: 5.75
PRISMA enrichment of interactor (log2) [56]: 5.53
PRISMA enrichment of interactor (log2) [57]: 4.76
PRISMA enrichment of interactor (log2) [58]: 5.57
PRISMA enrichment of interactor (log2) [59]: 6.97
PRISMA enrichment of interactor (log2) [60]: 3.95
PRISMA enrichment of interactor (log2) [61]: 4.91
PRISMA enrichment of interactor (log2) [62]: 5.49
PRISMA enrichment of interactor (log2) [63]: 6.82
PRISMA enrichment of interactor (log2) [64]: 5

MERRVMVLPLIVETC [TRIM26]
PRISMA enrichment of interactor (log2) [65]: 4.92
PRISMA enrichment of interactor (log2) [66]: 4.93
PRISMA enrichment of interactor (log2) [67]: 6.66
PRISMA enrichment of interactor (log2) [68]: 4.95
PRISMA enrichment of interactor (log2) [69]: 9.91
PRISMA enrichment of interactor (log2) [70]: 5.07

MKSRDLSLLL [FKBP14]
PRISMA enrichment of interactor (log2) [65]: 4.62
PRISMA enrichment of interactor (log2) [71]: 4.71
PRISMA enrichment of interactor (log2) [72]: 7
PRISMA enrichment of interactor (log2) [73]: 3.82
